The supplement of paper PMC3334620
Over roughly 33,000 sequences, “E-score (-0.5 to 0.5)” has its median near -0.0034; the highest 2% begin near 0.25. This is one part of the list.

target: T1, Yap3 (UniProt P38749); assay: PBM E-score (8-mer binding enrichment) (E-score (-0.5 to 0.5)); higher = stronger / more preferred TF binding; conditions: protein concentration: 100 nM; construct: GST-full length
T1 sequence: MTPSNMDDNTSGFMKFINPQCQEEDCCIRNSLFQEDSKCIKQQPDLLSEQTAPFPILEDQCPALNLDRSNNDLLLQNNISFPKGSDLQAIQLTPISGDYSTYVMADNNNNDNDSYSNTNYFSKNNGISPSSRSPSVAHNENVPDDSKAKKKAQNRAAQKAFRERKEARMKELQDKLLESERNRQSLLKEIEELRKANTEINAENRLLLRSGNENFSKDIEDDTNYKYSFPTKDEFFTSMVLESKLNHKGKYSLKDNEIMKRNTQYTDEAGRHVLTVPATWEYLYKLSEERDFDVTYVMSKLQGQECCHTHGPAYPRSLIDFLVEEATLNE
Outline: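 Masliner-normalised scans of fluorescent anti-GST signal were the basis for scoring. That signal came from GST-tagged yeast transcription factors applied at about 100-200 nM to double-stranded universal all-10-mer Agilent arrays on fresh or once-stripped slides. Each ungapped eight-base word, pooled with its reverse complement, received an E-score from the Universal PBM Analysis Suite.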

Row | Sequence | PBM E-score
1 | CATAACGA | 0.127
2 | TAGTGCAA | 0.159
3 | CGCAATAA | 0.191
4 | GGACCGAA | 0.0935
5 | ACGGCCGT | -0.214
6 | AAGGGAAC | -0.158
7 | ACGTAACA | 0.248
8 | ATCTAAGA | 0.0257
9 | CAAATCGC | -0.167
10 | GAGGGACC | -0.265
11 | CTTAAGTC | -0.0806
12 | ACGCTCGG | -0.0164
13 | AACGCCCT | -0.0326
14 | CGGAGGAG | -0.0814
15 | CAACAGCG | -0.135
16 | AGCGACAT | 0.0382
17 | CCGAACCG | -0.188
18 | ATTATACA | 0.195
19 | CAAGGAGA | -0.185
20 | AAAACGAT | 0.167
21 | AGTTGGTC | -0.09
22 | ATTCGAAA | 0.241
23 | GCCGGCAC | 0.00572
24 | GGATGCAC | -0.192

Row | Sequence | PBM E-score
25 | GGGGCCAC | -0.331
26 | ACAGAAAG | 0.129
27 | CAGGTCCC | -0.281
28 | AGCACATG | 0.05
29 | GTATAGTA | 0.143
30 | ATATGCAT | 0.0271
31 | CTCAAAGA | -0.0998
32 | AGAGTGTC | 0.195
33 | TATCAACA | 0.123
34 | CGCGCCCA | -0.0446
35 | TAACTTAA | 0.201
36 | GCAGTCGA | -0.0533
37 | ACGGCTAA | 0.168
38 | ACCTTTAC | 0.0118
39 | GGCGGTGA | 0.132
40 | CACGAGTG | -0.108
41 | GAAATAAC | 0.151
42 | GAGACAAA | 0.00669
43 | CTTAATAA | 0.275
44 | AACAGTGC | 0.00374
45 | ACCCTCCG | -0.282
46 | CGTATTGA | 0.166
47 | AAGAATGC | 0.0376
48 | ACCGGACG | 0.075

Row | Sequence | PBM E-score
49 | CTGGTAGC | -0.158
50 | CATAGTCG | -0.00295
51 | CGTCAAAA | 0.163
52 | ATATGGAA | 0.0953
53 | AGCGCTTG | -0.011
54 | GTGGTAAC | 0.058
55 | GTCGTCAA | 0.0673
56 | CGATTGGA | -0.0117
57 | GAATATAC | 0.181
58 | AATCTCGT | 0.0764
59 | CCTCACAA | -0.0501
60 | TAAAAATA | 0.26
61 | ATGAAGTA | 0.101
62 | AGTTCAGC | -0.221
63 | ACTATAAA | 0.237
64 | GGGCACTA | -0.128
65 | ATATCTTG | 0.085
66 | AATCGACG | -0.0671
67 | AACAACAG | -0.0946
68 | CAAGGACA | 0.0322
69 | GCATGGAA | 0.06
70 | AATGTATA | 0.232
71 | CAGCGTTC | -0.113
72 | AGCGTCTA | -0.219

Row | Sequence | PBM E-score
73 | GTCCGTCA | 0.0134
74 | ACACCGAA | 0.0282
75 | AGAAACCT | 0.0913
76 | ACGTGACA | -0.0599
77 | ACTGGACA | -0.0546
78 | GACCGAGC | -0.154
79 | ACTACTCT | 0.0451
80 | CATGTACG | 0.224
81 | ACTCAATA | 0.211
82 | GAATCGAA | 0.223
83 | AAAATGGA | 0.309
84 | CAGTCAGC | -0.0873
85 | CTTCAAAA | 0.0514
86 | ATAGTATA | 0.103
87 | AATCGTAC | 0.142
88 | AATAGGAC | 0.223
89 | GCTTTATA | 0.0704
90 | GACCGACA | 0.00482
91 | GCAATAAC | 0.109
92 | AGTGTCAC | -0.0511
93 | AACACTAT | 0.207
94 | GGATGACC | -0.0617

Some of the entries so far, as comma-separated lines.
Row,Sequence,PBM E-score
51,CGTCAAAA,0.163
52,ATATGGAA,0.0953
53,AGCGCTTG,-0.011
54,GTGGTAAC,0.058
